Experimental findings from publication PMC7819943, “Rice protein-binding microarrays: a tool to detect cis-acting elements near promoter regions in rice” are described below.

Sequences of proteins named here, by UniProt entry; tags and fusion partners are left off.
UniProt Q0JBA9, entry or part of it: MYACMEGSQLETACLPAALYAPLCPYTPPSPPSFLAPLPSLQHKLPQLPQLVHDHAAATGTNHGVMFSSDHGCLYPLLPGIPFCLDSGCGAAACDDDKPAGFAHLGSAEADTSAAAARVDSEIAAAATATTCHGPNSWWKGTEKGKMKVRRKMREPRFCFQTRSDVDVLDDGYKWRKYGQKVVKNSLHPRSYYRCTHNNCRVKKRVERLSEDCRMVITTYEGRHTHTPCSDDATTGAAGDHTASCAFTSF

The list shows a part of the results.

This assay has as its target OsWRKY34 (Oryza sativa, UniProt Q0JBA9 1-250). Put plainly: protein-binding microarray (RPBM); PBS, 2% BSA, 51.3 ng/ul salmon testes DNA, 50 uM zinc acetate, 200 nM TF, 25 C, 1 h; high values mean tight binding. To be noted: protein: recombinant; tags: N-terminal polyhistidine and DsRed monomer fusion (pET32a); label: CyDye5-dUTP incorporated in the synthesized complementary strand; 3' TTTTT single-stranded linker to array surface; dsDNA, one strand shown. The essentials:
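Using Ni–NTA, transcription factors fused N-terminally to polyhistidine and DsRed were purified after expression in E. coli BL21-CodonPlus. These were incubated at 200 nM with a blocked, double-stranded custom Agilent array for 1 h at 25 °C in a buffer containing 50 µM zinc acetate, and the array was washed. The binding signal is per-feature fluorescence intensity (arbitrary units) on an Axon 4000B scanner.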
On to “GTGCTCAGGGTTTTAAATTTCGAAACTTGGTTTTCTGCCACGGAGTCACCTAGTGCAG”, for which the binding signal was 8040 fluorescence intensity (a.u.).

Consider “CCATCTTCTTCTGGCGAATCATGTCGACCACCAGCCCGGCCGGAGTCACCTAGTGCAG”, for which the binding signal is 8310 fluorescence intensity (a.u.).

In the case of “GGTGGTGGGCTGGTGGCGTATAGTCTTGAACTTACGCCAACGGAGTCACCTAGTGCAG”, the binding signal is 9760 fluorescence intensity (a.u.).

For the sequence “TCCACCGCCCGTACTCCTATCGCAATGACACTCTGCCTTCCGGAGTCACCTAGTGCAG”, the binding signal was 8890 fluorescence intensity (a.u.).

Consider “GTCCTCTTCTTCGATTCCTCCTCTGTTCTCGCTGGCCGTACGGAGTCACCTAGTGCAG”, for which the binding signal is 8180 fluorescence intensity (a.u.).

For “CCCACTCGCTCTCTCTCTCTTCCGTCGCACCCTCTCTCTCCGGAGTCACCTAGTGCAG”, the binding signal was 14100 fluorescence intensity (a.u.).

“TGCTGTTCTTGCCACCCTCTTTTTGCTTGCTCTACCATTGCGGAGTCACCTAGTGCAG”: the binding signal was 8200 fluorescence intensity (a.u.).

On to “GAGCATCTCCTATATTCATAGATTTTCACCATTGATCTTTCGGAGTCACCTAGTGCAG”, for which the binding signal is 9010 fluorescence intensity (a.u.).

In the case of “TATCTCGTGAATTAGCTTTTATTTATGTAATTAGTTTTGTCGGAGTCACCTAGTGCAG”, the binding signal was 8890 fluorescence intensity (a.u.).

Consider “TACTTGTTCCCGTACACCAGCACGCCCGTATGCCTACACACGGAGTCACCTAGTGCAG”, for which the binding signal was 9330 fluorescence intensity (a.u.).

With “TTCCTTCTTTCTTTTATTTCGTTGTACTTTAATTTGATATCGGAGTCACCTAGTGCAG”, the binding signal was 8980 fluorescence intensity (a.u.).

On to “CTCGCTCGCTAGGGTTTTGTCTCGATCGGGCGGGGCCTGTCGGAGTCACCTAGTGCAG”, for which the binding signal is 9610 fluorescence intensity (a.u.).

Turning to “CAGATATTATATTACGTAACATCTTCGTCAAGCTTACAATCGGAGTCACCTAGTGCAG”, the binding signal was 8860 fluorescence intensity (a.u.).

For the sequence “TAATTTTTTTGTCACATCGAACTTTTCTACATACACAAACCGGAGTCACCTAGTGCAG”, the binding signal is 8800 fluorescence intensity (a.u.).

On to “TGTATCACATCTTGCTCTATGTTTGTTTTTTTTCGGACGGCGGAGTCACCTAGTGCAG”, for which the binding signal was 11400 fluorescence intensity (a.u.).

Consider “CTCTTCCTTGTTGGGCCGAGCCCGCGACACGACCTCGACTCGGAGTCACCTAGTGCAG”, for which the binding signal is 8270 fluorescence intensity (a.u.).

On to “TTTTCTCCCACCATACACAATGCCAAGTTCTGTTTTTTTTCGGAGTCACCTAGTGCAG”, for which the binding signal was 9370 fluorescence intensity (a.u.).

Turning to “GCACCTGGCCCCTCGCCGGCCGGTTCACCGACGCCAGGTGCGGAGTCACCTAGTGCAG”, the binding signal is 8920 fluorescence intensity (a.u.).

On to “ACGCTGACTTAGTCTCCCATCCACGGTGGTACGGCATTCACGGAGTCACCTAGTGCAG”, for which the binding signal is 8790 fluorescence intensity (a.u.).

“GTAGAGAGGGTTTTCCAGTAGTTTTTGTTTGTTGTTGATGCGGAGTCACCTAGTGCAG”: the binding signal is 8310 fluorescence intensity (a.u.).

As to “ACCTGCATCTGTTTCTCTTTTACTTCACCTGTGATCGGGGCGGAGTCACCTAGTGCAG”, the binding signal was 10200 fluorescence intensity (a.u.).

Regarding “TTTTCCTTGTCAATCCGACAGTCGGAGTCCTGAATATCGGCGGAGTCACCTAGTGCAG”, the binding signal was 8160 fluorescence intensity (a.u.).

In the case of “AAAAATGTTTCCGTGGTTCGTCACCCGTGTTTAAGTCGGTCGGAGTCACCTAGTGCAG”, the binding signal is 8230 fluorescence intensity (a.u.).

For the sequence “ACGCCGTTAACTTTTTATCCAATGTTTGACCATTCGTCTTCGGAGTCACCTAGTGCAG”, the binding signal was 13000 fluorescence intensity (a.u.).

Take “CATTTACCTCCATTATATTATAGCTTTCTCTCTCTTTTTTCGGAGTCACCTAGTGCAG”: the binding signal was 11000 fluorescence intensity (a.u.).

With “GTAATAGTACTACACTACTACTCCACCATGTCCATCGCACCGGAGTCACCTAGTGCAG”, the binding signal is 9120 fluorescence intensity (a.u.).

With “TTTGTAGTTGATTTTTTTTTATTCTAAGTCATTTTTTTTCCGGAGTCACCTAGTGCAG”, the binding signal is 9250 fluorescence intensity (a.u.).

For the sequence “TACACGCACATACCGTCTTTTTTGGCAGTTTCCTTTGACACGGAGTCACCTAGTGCAG”, the binding signal was 9840 fluorescence intensity (a.u.).

On to “ATTCCGCTCACTCCCTCGGAAATTTCGTACCCATATCTTACGGAGTCACCTAGTGCAG”, for which the binding signal was 9490 fluorescence intensity (a.u.).

Turning to “TGATTGTCTTTTCACGGAGTTGGTTGTTTTGTTGTTGAACCGGAGTCACCTAGTGCAG”, the binding signal was 10600 fluorescence intensity (a.u.).

For “CTACTGAGCTTTTGAATTTTTTTTCACGTCTTATTAAATGCGGAGTCACCTAGTGCAG”, the binding signal is 9770 fluorescence intensity (a.u.).

Consider “AGGCCTCCACGGCTCCACCTCCTTCCGCTTTCGCCTATCCCGGAGTCACCTAGTGCAG”, for which the binding signal is 10000 fluorescence intensity (a.u.).

For the sequence “TGTTCTTCCAAGTTCCGACGTAGATCAAGTGGTCAGCACCCGGAGTCACCTAGTGCAG”, the binding signal was 8090 fluorescence intensity (a.u.).

Consider “GATATACACACTTAGCTCTCCTACTGTGAGAATTCTCTTCCGGAGTCACCTAGTGCAG”, for which the binding signal is 9480 fluorescence intensity (a.u.).

Regarding “CGTACGTCGCCTCGAAATGGATCCACGGTCACACACACTGCGGAGTCACCTAGTGCAG”, the binding signal was 8360 fluorescence intensity (a.u.).

As to “TTAATGTTCAGTCCTTGTGTGTAGCCTTGCCGGTGCAAACCGGAGTCACCTAGTGCAG”, the binding signal was 8510 fluorescence intensity (a.u.).

Take “CCACCGCCTCTACTAAACCCTCCGCCGCCGCCGCCGCCGCCGGAGTCACCTAGTGCAG”: the binding signal was 8660 fluorescence intensity (a.u.).

On to “GCAAGAGAAATCCTTCTCCATTGTCACTGTGTCAGTTTGTCGGAGTCACCTAGTGCAG”, for which the binding signal was 9550 fluorescence intensity (a.u.).

“GCGCTCACTTTTCAGCTCATCACTCCGTCACCTCGTGCTCCGGAGTCACCTAGTGCAG”: the binding signal is 8700 fluorescence intensity (a.u.).

For the sequence “TAGGGAAGGGTTTTTTTTTCTTAGTAAGAGTTTAGCAAAGCGGAGTCACCTAGTGCAG”, the binding signal was 10400 fluorescence intensity (a.u.).

Turning to “GGTTAGATGGGCCGACTCCGCGTTTCTACCTCGGCCCAATCGGAGTCACCTAGTGCAG”, the binding signal is 9760 fluorescence intensity (a.u.).

Take “CAGGTCCATGTTACTTTTCTCCATTCATTCACACGCTCCACGGAGTCACCTAGTGCAG”: the binding signal was 8120 fluorescence intensity (a.u.).
